{
  "source": "PubChem BioAssay AID2685",
  "about": "(National Center for Advancing Translational Sciences (NCATS), 2010)",
  "assay": "qHTS Assay for Lipid Storage Modulators in Drosophila S3 Cells;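 as to cell number change: cells counted by Cell Tracker Red CMTPX staining in the red channel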",
  "conditions": "BODIPY lipid droplet fluorescence, 18-24 h; for cell number change: measured here: cell count max response, cells fed with added oleic acid",
  "in_short": "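Drosophila S3 cells loaded with oleic acid (400 uM, as added) and compounds at several concentrations; lipid droplets imaged by 488-nm laser-scanning cytometry, 500–530 nm intensity and object ratio to cell channel. Percent activity normalized to 20 uM Triacsin C.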",
  "key": {"[1]": {"conditions": "measured here: lipid fluorescence (Fed channel) AC50, cells fed with added oleic acid"}, "[2]": {"conditions": "measured here: cell number channel AC50, cells fed with added oleic acid"}},
  "note": "The other results are listed elsewhere or left out. The main result of the screen is listed elsewhere. These columns were measured beside it and carry no call. Most of these compounds were active or inconclusive in the main read-out, so they are no random draw. The note in brackets gives the kind of curve behind each potency; many fits are weak.",
  "data": [
    {"smiles": "O=C1NC[C@@H](Cc2cccc3ccccc23)N(CCC23CC4CC(CC(C4)C2)C3)C1=O", "values": [
      {"measurement": "cell number change", "result": 22.1, "unit": "%"},
      {"measurement": "AC50", "setting": "[1]", "result": "32.6 µM [falling, single point]"}
    ]},
    {"smiles": "COc1ccc(N2CCN(C(=O)CCCn3c(=O)[nH]c4ccsc4c3=O)CC2)cc1", "values": [
      {"measurement": "cell number change", "result": -0.368, "unit": "%"},
      {"measurement": "AC50", "setting": "[1]", "result": "6.51 µM [falling, single point]"}
    ]},
    {"smiles": "Cc1cc(S(=O)(=O)N2CCC(NC(=O)C34CC5CC(CC(C5)C3)C4)CC2)ccc1-n1cnnn1", "values": [
      {"measurement": "cell number change", "result": -19.4, "unit": "%"}
    ]},
    {"smiles": "Cc1ccc(C(=O)/C=C/c2ccc(-c3ccccc3[N+](=O)[O-])o2)cc1", "values": [
      {"measurement": "cell number change", "result": 77.3, "unit": "%"},
      {"measurement": "AC50", "setting": "[2]", "result": "18.4 µM [rising, single point]"}
    ]},
    {"smiles": "COc1ccc(S(=O)(=O)N(CC(=O)NCc2cccnc2)c2ccc(C)cc2)cc1OC", "values": [
      {"measurement": "cell number change", "result": -15.4, "unit": "%"},
      {"measurement": "AC50", "setting": "[1]", "result": "0.116 µM [rising, single point]"}
    ]},
    {"smiles": "CC(CC(=O)Nc1ccncc1)c1ccccc1", "note": "(stereo unspecified)", "values": [
      {"measurement": "cell number change", "result": -1.75, "unit": "%"}
    ]},
    {"smiles": "O=C(COC(=O)C1c2ccccc2Oc2ccccc21)Nc1ccc2c(c1)OCO2", "values": [
      {"measurement": "cell number change", "result": 17.6, "unit": "%"},
      {"measurement": "AC50", "setting": "[1]", "result": "0.58 µM [falling, single point]"}
    ]},
    {"smiles": "Cc1ccc2nc(Nc3ccc4[nH]c(=O)[nH]c4c3)c(-n3nc(C)cc3C)nc2c1", "values": [
      {"measurement": "cell number change", "result": -161, "unit": "%"},
      {"measurement": "AC50", "setting": "[1]", "result": "0.259 µM [rising, full curve]"}
    ]},
    {"smiles": "COc1cccc(/C=N/NC(=O)CC2C(=O)NN=C2C)c1O", "note": "(stereo unspecified)", "values": [
      {"measurement": "cell number change", "result": 14.6, "unit": "%"},
      {"measurement": "AC50", "setting": "[1]", "result": "3.66 µM [falling, full curve]"}
    ]},
    {"smiles": "O=C(O)/C=C/c1ccc2c(-c3ccccc3)onc2c1", "values": [
      {"measurement": "cell number change", "result": -18.4, "unit": "%"},
      {"measurement": "AC50", "setting": "[1]", "result": "2.31 µM [rising, partial curve, poor fit]"}
    ]},
    {"smiles": "CSc1oc(-c2ccco2)nc1S(=O)(=O)c1ccc(Br)cc1", "values": [
      {"measurement": "AC50", "setting": "[2]", "result": "2.06 µM [rising, partial curve]"},
      {"measurement": "AC50", "setting": "[1]", "result": "6.51 µM [rising, single point]"}
    ]},
    {"smiles": "CC(C)C(NC(=O)COc1ccc2ccccc2c1)C(=O)N/N=C/C=C/c1ccccc1", "note": "(stereo unspecified)", "values": [
      {"measurement": "cell number change", "result": 97.2, "unit": "%"},
      {"measurement": "AC50", "setting": "[2]", "result": "4.61 µM [rising, full curve]"},
      {"measurement": "AC50", "setting": "[1]", "result": "6.51 µM [rising, partial curve]"}
    ]},
    {"smiles": "O=C1CCCN1CCCNc1ncnc2c1[nH]c1ccccc12", "values": [
      {"measurement": "cell number change", "result": -12.7, "unit": "%"},
      {"measurement": "AC50", "setting": "[1]", "result": "7.31 µM [rising, partial curve]"}
    ]},
    {"smiles": "CC(=O)Nc1sc2c(c1CN1CCN(c3ccccn3)CC1)CCCC2", "values": [
      {"measurement": "cell number change", "result": 1.67, "unit": "%"},
      {"measurement": "AC50", "setting": "[1]", "result": "0.366 µM [rising, partial curve, poor fit]"}
    ]},
    {"smiles": "COc1cccc(C(=O)Nc2cc(NC(=O)c3ccco3)ccc2OC)c1", "values": [
      {"measurement": "AC50", "setting": "[1]", "result": "3.26 µM [rising, partial curve]"}
    ]},
    {"smiles": "Cc1ccc(OCCNC(=O)CNC(=O)c2ccc3c(c2)OCO3)cc1", "values": [
      {"measurement": "cell number change", "result": 14.4, "unit": "%"},
      {"measurement": "AC50", "setting": "[1]", "result": "11.6 µM [rising, partial curve]"}
    ]},
    {"smiles": "NC(=O)CCSC(=S)N1CCOCC1", "values": [
      {"measurement": "cell number change", "result": -7.52, "unit": "%"},
      {"measurement": "AC50", "setting": "[2]", "result": "0.58 µM [falling, single point]"},
      {"measurement": "AC50", "setting": "[1]", "result": "5.17 µM [falling, single point]"}
    ]},
    {"smiles": "Cc1nn(CCCC(=O)Nc2cnn(Cc3ccc(F)cc3)c2)c(C)c1[N+](=O)[O-]", "values": [
      {"measurement": "AC50", "setting": "[1]", "result": "4.11 µM [falling, single point]"}
    ]},
    {"smiles": "CCOc1ccc(-c2nnn(CCC(=O)O)n2)cc1OC", "values": [
      {"measurement": "cell number change", "result": -110, "unit": "%"},
      {"measurement": "AC50", "setting": "[2]", "result": "29.1 µM [falling, single point]"},
      {"measurement": "AC50", "setting": "[1]", "result": "29.1 µM [falling, partial curve]"}
    ]},
    {"smiles": "Cc1cc(C)cc(N(C)S(=O)(=O)c2nnc(NC(=O)C(C)C)s2)c1", "values": [
      {"measurement": "cell number change", "result": -24.8, "unit": "%"},
      {"measurement": "AC50", "setting": "[1]", "result": "0.00461 µM [falling, full curve, poor fit]"}
    ]},
    {"smiles": "Cc1cccc(C(=O)Oc2cc(C)[nH]c(=O)c2[N+](=O)[O-])c1", "values": [
      {"measurement": "cell number change", "result": 5.9, "unit": "%"},
      {"measurement": "AC50", "setting": "[1]", "result": "29.1 µM [rising, single point]"}
    ]},
    {"smiles": "O=C(O)CCCC(=O)Nc1ccccc1C(=O)N1CCOCC1", "values": [
      {"measurement": "cell number change", "result": -48.4, "unit": "%"},
      {"measurement": "AC50", "setting": "[2]", "result": "29.1 µM [falling, single point]"},
      {"measurement": "AC50", "setting": "[1]", "result": "29.1 µM [falling, single point]"}
    ]},
    {"smiles": "N=C(N)c1ccc(Cl)cc1", "values": [
      {"measurement": "cell number change", "result": 8.42, "unit": "%"},
      {"measurement": "AC50", "setting": "[1]", "result": "0.82 µM [falling, full curve, poor fit]"}
    ]},
    {"smiles": "Cc1ccc(C)c(OCC(=O)Nc2ccccc2C(=O)NC2CC2)c1", "values": [
      {"measurement": "cell number change", "result": 0.283, "unit": "%"},
      {"measurement": "AC50", "setting": "[1]", "result": "6.51 µM [falling, single point]"}
    ]},
    {"smiles": "Cc1cccnc1NC(=O)c1ccc(S(=O)(=O)NCc2ccco2)cc1", "values": [
      {"measurement": "cell number change", "result": 40.6, "unit": "%"},
      {"measurement": "AC50", "setting": "[2]", "result": "0.0291 µM [rising, full curve]"}
    ]},
    {"smiles": "C[C@H]1O[C@@H](n2cc(F)c(=O)[nH]c2=O)[C@H](O)[C@@H]1O", "values": [
      {"measurement": "cell number change", "result": -0.0238, "unit": "%"},
      {"measurement": "AC50", "setting": "[1]", "result": "0.164 µM [falling, full curve, poor fit]"}
    ]},
    {"smiles": "O=C(NC1CCCCC1)N(Cc1cc2cc3c(cc2[nH]c1=O)OCCO3)C1CCCCC1", "values": [
      {"measurement": "AC50", "setting": "[2]", "result": "2.91 µM [rising, partial curve]"},
      {"measurement": "AC50", "setting": "[1]", "result": "2.59 µM [rising, partial curve]"}
    ]},
    {"smiles": "CCOc1ccc(CN(C)C(=O)CCNC(=O)c2ccco2)cc1", "values": [
      {"measurement": "cell number change", "result": 21.3, "unit": "%"},
      {"measurement": "AC50", "setting": "[1]", "result": "29.1 µM [rising, single point]"}
    ]},
    {"smiles": "O=C(NNC(=O)c1ccccc1Cl)c1cccnc1", "values": [
      {"measurement": "cell number change", "result": 9.21, "unit": "%"},
      {"measurement": "AC50", "setting": "[1]", "result": "6.31 µM [falling, single point]"}
    ]},
    {"smiles": "Cc1nc(-c2cccc(S(=O)(=O)N3CCCCCC3)c2)cs1", "values": [
      {"measurement": "cell number change", "result": 59.9, "unit": "%"},
      {"measurement": "AC50", "setting": "[2]", "result": "29.1 µM [rising, single point]"}
    ]},
    {"smiles": "[O-][n+]1ccc(C2CC2)cc1", "values": [
      {"measurement": "cell number change", "result": -26.9, "unit": "%"},
      {"measurement": "AC50", "setting": "[1]", "result": "3.66 µM [falling, full curve]"}
    ]},
    {"smiles": "COc1cccc(N(CC(=O)NCCSc2ccccn2)S(=O)(=O)c2ccccc2)c1", "values": [
      {"measurement": "cell number change", "result": -33.3, "unit": "%"},
      {"measurement": "AC50", "setting": "[2]", "result": "9.2 µM [falling, partial curve, poor fit]"}
    ]},
    {"smiles": "Cc1ccc(-n2cnn(-c3ccc([N+](=O)[O-])cc3[N+](=O)[O-])c2=O)cc1", "values": [
      {"measurement": "cell number change", "result": -20.2, "unit": "%"},
      {"measurement": "AC50", "setting": "[1]", "result": "29.1 µM [falling, single point]"}
    ]},
    {"smiles": "Cc1ccccc1NC(=O)c1c([N+](=O)[O-])c(C(C)(C)C)nn1C", "values": [
      {"measurement": "cell number change", "result": 26, "unit": "%"},
      {"measurement": "AC50", "setting": "[1]", "result": "1.84 µM [rising, full curve]"}
    ]},
    {"smiles": "Cc1cc(C)n(S(=O)(=O)c2ccccc2)n1", "values": [
      {"measurement": "cell number change", "result": 42.4, "unit": "%"},
      {"measurement": "AC50", "setting": "[2]", "result": "14.6 µM [rising, single point]"},
      {"measurement": "AC50", "setting": "[1]", "result": "16.4 µM [rising, single point]"}
    ]},
    {"smiles": "Cc1cc(C)cc(NC(=O)CCn2cnc3cc(C)c(C)cc32)c1", "values": [
      {"measurement": "AC50", "setting": "[1]", "result": "0.461 µM [falling, single point]"}
    ]},
    {"smiles": "COc1ccccc1NS(=O)(=O)c1ccc(NC(=O)c2[nH]nc(OC)c2[N+](=O)[O-])cc1", "values": [
      {"measurement": "cell number change", "result": -13.9, "unit": "%"}
    ]},
    {"smiles": "Cc1ccc(C(=O)O)cc1S(=O)(=O)NCC1CCCO1", "note": "(stereo unspecified)", "values": [
      {"measurement": "cell number change", "result": -47, "unit": "%"},
      {"measurement": "AC50", "setting": "[2]", "result": "16.4 µM [falling, partial curve]"},
      {"measurement": "AC50", "setting": "[1]", "result": "18.4 µM [falling, single point]"}
    ]}
  ]
}
